Results from publication PMC9821108, “Biochemical and Structural Analyses Shed Light on the Mechanisms of RadD DNA Binding and Its ATPase from Escherichia coli” (International Journal of Molecular Sciences, 2023).
These are yes or no findings as the source states them, for the method shown. Some binding calls cover weakened binding; strength is not graded here.

By UniProt entry, the sequences of proteins in these tests, tags left out.
UniProt P0AGE0: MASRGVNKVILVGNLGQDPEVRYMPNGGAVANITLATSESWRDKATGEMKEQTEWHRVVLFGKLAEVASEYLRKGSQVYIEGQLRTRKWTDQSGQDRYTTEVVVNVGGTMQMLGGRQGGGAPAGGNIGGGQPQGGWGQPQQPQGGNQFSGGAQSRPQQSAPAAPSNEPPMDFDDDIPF

Molecular target: T1, RadD (Escherichia coli) (UniProt P33919)
T1 sequence: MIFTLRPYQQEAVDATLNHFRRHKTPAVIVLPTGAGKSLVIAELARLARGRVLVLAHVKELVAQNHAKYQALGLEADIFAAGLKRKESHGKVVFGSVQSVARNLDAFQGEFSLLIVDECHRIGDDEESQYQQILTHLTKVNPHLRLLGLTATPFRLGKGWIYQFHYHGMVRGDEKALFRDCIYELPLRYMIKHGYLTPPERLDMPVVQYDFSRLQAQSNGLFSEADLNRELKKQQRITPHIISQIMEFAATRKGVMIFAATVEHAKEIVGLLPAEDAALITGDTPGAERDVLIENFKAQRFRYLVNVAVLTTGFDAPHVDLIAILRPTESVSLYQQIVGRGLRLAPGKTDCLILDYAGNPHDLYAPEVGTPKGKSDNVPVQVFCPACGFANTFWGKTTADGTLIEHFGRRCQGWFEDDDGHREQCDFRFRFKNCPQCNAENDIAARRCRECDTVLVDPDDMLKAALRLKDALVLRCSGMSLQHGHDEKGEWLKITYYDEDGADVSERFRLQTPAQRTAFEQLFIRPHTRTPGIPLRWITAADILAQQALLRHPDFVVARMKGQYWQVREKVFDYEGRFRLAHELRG
Test: SEC; molecular exclusion chromatography of RadD with SSB, in vitro (Figure S1); both purified

binding: binds
Substance: single-stranded DNA-binding protein (SSB) (from UniProt P0AGE0 1-178)
